Structures can show the parent of a compound that is named as a salt. Some of the results follow. Repeats are few or missing, and single values can be far off.
How the values were obtained:
Test in all cases: reduction in cell viability relative to untreated/vehicle; higher = more growth inhibition
Details in all cases: 200 nM; 72 h
[1] = tested on: M229P (parental melanoma line)
[2] = tested on: M229R (matched melanoma line resistant to BRAF inhibitors)
[3] = tested on: M238P (parental melanoma line)
[4] = tested on: M238R (matched melanoma line resistant to BRAF inhibitors)
[5] = tested on: M249P (parental melanoma line)
[6] = tested on: M249R (matched melanoma line resistant to BRAF inhibitors)
[7] = tested on: UACC62P (parental melanoma line)
[8] = tested on: UACC62R (matched melanoma line resistant to BRAF inhibitors)

Measured: reduction in cell viability

CCC(C)N(C)C(=O)c1cc2ccccc2c(-c2ccccc2Cl)n1 (stereo not drawn)
< 0%: all assays above

C1Cc2[nH]nc(-c3nn[nH]n3)c2C1
< 0%: all assays above

C=C1C(=O)O[C@H]2[C@H]1CC/C(C)=C/CC[C@@]1(C)O[C@@H]21 [Parthenolide]
8.55%: [2]
0.71%: [3]
< 0%: all other assays above

O=C(/C=C/c1ccc(O)cc1)c1ccc(O)cc1O [Isoliquiritigenin]
< 0%: all assays above

CCC(NC(C)C)C(O)c1ccc(O)c2[nH]c(=O)ccc12 (stereo not drawn) [Procaterol]
2.62%: [6]
< 0%: all other assays above

CN(C)C(=O)COC(=O)Cc1ccc(OC(=O)c2ccc(NC(=N)N)cc2)cc1 [Camostat mesylate]
< 0%: all assays above

Not a retest: two of the compounds above.
CCC(C)N(C)C(=O)c1cc2ccccc2c(-c2ccccc2Cl)n1 (stereo not drawn)
< 0%: all assays above

C1Cc2[nH]nc(-c3nn[nH]n3)c2C1
< 0%: all assays above

Following part:

CCNC(=O)c1cc2c(-c3cc(OCCN4CCCC4)c(Cl)cc3Cl)nc(N)nc2s1
< 0%: all assays above

CCCCCCCN(CC)CCCC(O)c1ccc(NS(C)(=O)=O)cc1 (stereo not drawn) [Ibutilide fumarate]
< 0%: all assays above

CN(C)C1CCN(C(=O)c2ccc(NC(=O)Nc3ccc(-c4nc(N5CCOCC5)nc(N5CCOCC5)n4)cc3)cc2)CC1
69%: [5]
49%: [3]
55.4%: [6]
55.2%: [8]
49.6%: [4]
40.6%: [2]
56.6%: [7]
58.4%: [1]

CNC(=O)c1ccc(N2C(=S)N(c3cnc(C#N)c(C(F)(F)F)c3)C(=O)C23CCC3)cc1F
< 0%: all assays above

CC1(C)CC[C@]2(C(=O)O)CC[C@]3(C)C(=CC[C@@H]4[C@@]5(C)CC[C@H](O)C(C)(C)[C@@H]5CC[C@]43C)[C@@H]2C1 [Oleanolic acid]
< 0%: all assays above

O=C(Nc1cccc2c(=O)cc(-c3nnn[nH]3)oc12)c1ccc(OCCCCc2ccccc2)cc1 [Pranlukast]
< 0%: all assays above

O=c1oc2cc(O)ccc2s1 [Tioxolone]
< 0%: all assays above

CCN(CC)CCn1c(=O)c(Cc2ccc(OC)cc2)nc2ccccc21 [Caroverine hydrochloride]
0.96%: [4]
3.71%: [7]
< 0%: all other assays above

COc1nc(N)nc2c1ncn2[C@@H]1O[C@H](CO)[C@@H](O)[C@@H]1O [Nelarabine]
< 0%: all assays above

CCCCCCCCCC(=O)N[C@@H](Cc1c[nH]c2ccccc12)C(=O)N[C@H](CC(N)=O)C(=O)N[C@@H](CC(=O)O)C(=O)N[C@@H]1C(=O)NCC(=O)N[C@@H](CCCN)C(=O)N[C@@H](CC(=O)O)C(=O)N[C@H](C)C(=O)N[C@@H](CC(=O)O)C(=O)NCC(=O)N[C@H](CO)C(=O)N[C@@H]([C@H](C)CC(=O)O)C(=O)N[C@@H](CC(=O)c2ccccc2N)C(=O)O[C@@H]1C [Daptomycin]
< 0%: all assays above

CNC(C)C1CCC(N)C(OC2C(N)CC(N)C(OC3OCC(C)(O)C(NC)C3O)C2O)O1 (stereo not drawn) [Gentamycin sulfate]
< 0%: all assays above

N#C/C(=C(/N)Sc1ccc(N)cc1)c1ccccc1C(F)(F)F
4.2%: [5]
< 0%: all other assays above

CN(C1CCc2c(c3ccccc3n2CC(=O)O)C1)S(=O)(=O)c1ccc(F)cc1 (stereo not drawn)
10.1%: [6]
< 0%: all other assays above

CNC(=O)[C@H](Cc1ccccc1)NC(=O)[C@H](CC(C)C)[C@H](CSc1cccs1)C(=O)NO [Batimastat]
< 0%: all assays above

CC[C@]1(O)C[C@@H]2CN(CCc3c([nH]c4ccccc34)[C@@](C(=O)OC)(c3cc4c(cc3OC)N(C)[C@H]3[C@@](O)(C(=O)OC)[C@H](OC(C)=O)[C@]5(CC)C=CCN6CC[C@]43[C@@H]65)C2)C1 [Vinblastine Sulfate]
88.2%: [8]
49%: [4]
69.3%: [3]
51.9%: [6]
46%: [1]
52%: [2]
55.4%: [5]
61.3%: [7]

COc1cccc2c1C(=O)c1c(O)c3c(c(O)c1C2=O)C[C@@](O)(C(=O)CO)C[C@@H]3O[C@H]1C[C@H](N)[C@@H](O)[C@H](C)O1 [Epirubicin hydrochloride]
25.9%: [2]
45.4%: [8]
46%: [5]
35.4%: [4]
7.87%: [1]
50.7%: [6]
23.2%: [7]
64.3%: [3]

N#Cc1c(N(CC(=O)O)CC(=O)O)sc(C(=O)O)c1CC(=O)O [Strontium ranelate heptahydrate]
< 0%: all assays above

OC1CCC(Nc2ncc3nc(Nc4c(F)cc(F)cc4F)n([C@@H]4CCOC4)c3n2)CC1 (stereo partly drawn)
2.5%: [7]
< 0%: all other assays above

COC(=O)Nc1nc2cc([S+]([O-])c3ccccc3)ccc2[nH]1 (stereo not drawn) [Oxfendazole]
< 0%: all assays above

CC(c1cc2ccccc2s1)N(O)C(N)=O (stereo not drawn) [Zileuton]
< 0%: all assays above

CCc1cc(C(N)=S)ccn1 [Ethionamide]
4.45%: [5]
1.91%: [7]
< 0%: all other assays above

O=C(NCc1ccccc1)[C@H](Cc1ccccc1)NC(=O)[C@H]1O[C@@H]1C(=O)NCCc1ccc(O)cc1
< 0%: all assays above

CN(C)CCOc1cc(-c2cn[nH]c2)ccc1NC(=O)C1COc2ccccc2O1 (stereo not drawn)
9.93%: [2]
6.69%: [7]
< 0%: all other assays above

CC1(CN2CCC(n3c(=O)[nH]c4ccccc43)CC2)OCc2ccccc2-n2cccc21 (stereo not drawn) [Zaldaride maleate]
< 0%: all assays above

CNc1nc(-c2ccc3c(N)n[nH]c3c2)cc(N2C[C@@H](C(=O)NC3CCCCC3)CC[C@H]2C)n1
1.96%: [6]
2.12%: [7]
< 0%: all other assays above

Cc1nc(C(=O)NCC(=O)O)c(O)c2ccc(Oc3ccccc3)cc12 [Roxadustat (FG-4592)]
4.41%: [2]
< 0%: all other assays above

CC(=O)N1CCN(c2ccc(OCc3nn(C)c(C)c3-c3cccc4c(CCCOc5cccc6ccccc56)c(C(=O)O)n(Cc5cccnc5)c34)cc2)CC1
< 0%: all assays above

N#CC1(c2cccc(C(=O)Nc3cc(Oc4ccc5nc(NC(=O)C6CC6)sc5n4)ccc3F)c2Cl)CC1 [Takeda-6d]
29%: [6]
< 0%: [4]
19.6%: [2]
55.5%: [7]
34.8%: [5]
26%: [3]
28.3%: [8]
17.9%: [1]

CCOC(=O)[C@@H](C)Oc1cccc2c(=O)n(CC(=O)Nc3ccc4c(c3)OCCO4)ccc12
< 0%: all assays above

CC1(C)O[C@@H]2C[C@H]3[C@@H]4C[C@H](F)C5=CC(=O)C=C[C@]5(C)[C@H]4[C@@H](O)C[C@]3(C)[C@]2(C(=O)CO)O1 [Flunisolide]
< 0%: all assays above

CCC(C)n1ncn(-c2ccc(N3CCN(c4ccc(OCC5COC(Cn6cncn6)(c6ccc(Cl)cc6Cl)O5)cc4)CC3)cc2)c1=O (stereo not drawn) [Itraconazole]
< 0%: all assays above

Clc1ccc(C(Cn2ccnc2)OCc2ccc(Sc3ccccc3)cc2)c(Cl)c1 (stereo not drawn) [Fenticonazole nitrate]
10.4%: [7]
< 0%: all other assays above

CC1=C(CO)C(=O)O[C@@H]([C@@H](C)[C@H]2CC[C@H]3[C@@H]4C[C@H]5O[C@]56[C@@H](O)C=CC(=O)[C@]6(C)[C@H]4CC[C@]23C)C1 [Withaferin A]
37.5%: [4]
65.8%: [3]
25.9%: [1]
< 0%: [5] | [6]
60.3%: [2]
29.7%: [7]
61.6%: [8]

COc1ccc(-n2nc(C(N)=O)c3c2C(=O)N(c2ccc(N4CCCCC4=O)cc2)CC3)cc1 [Apixaban]
< 0%: all assays above

OC[C@H]1O[C@@H](OCCc2ccc(O)cc2)[C@H](O)[C@@H](O)[C@@H]1O [Salidroside]
< 0%: all assays above

From the supplement of paper PMC9015667
